According to PubChem BioAssay AID504444 (National Center for Advancing Translational Sciences (NCATS), 2011):
In all, about 360,000 compounds went through this assay and about 7,500 (2.1%) were called active. The inconclusive results got no clear call from the source; some entries with a clear call stand among them for comparison. Calls come from the whole dose curve; as a rule, active = well fitted inhibition curve with a large enough effect; inconclusive = small, poorly fitted or top-dose-only effect, or effect the other way; inactive = flat fitted curve, though single readings scatter. Potencies of inconclusive entries are doubtful fits and often do not repeat.

Assay: Nrf2 qHTS screen for inhibitors; note: nearly all actives have a fitted effect of over 60% in size
Conditions: A549 ARE-Fluc reporter, luciferase luminescence, 18-24 h; activity change, negative = inhibition: at 46 µM (top of the series)
Method in brief: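 Two sequential reads on A549 ARE_Fluc cells exposed to compound for 18-24 h: a CellTiter-Fluor fluorescence read for viability, then a luciferase luminescence read for Nrf2/ARE activity.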
% is set by controls: 0 for no effect and ±100 for the full control effect; potency is the fitted concentration of half-maximal effect.

Row | SMILES | activity change, negative = inhibition | Potency
1 | COc1cccc(CN2CC34CCC(CC3S2(=O)=O)O4)c1 (configuration not stated) | inactive: 15.4% | 
2 | Cc1cc(C)c(NC(=O)Cn2nnc3sc4c(c3c2=O)CCC(C(C)(C)C)C4)c(C)c1 (configuration not stated) |  | inconclusive: 29.1 µM [falling, partial curve, poor fit]
3 | CCCCN1C(C(=O)c2ccccc2)=C(OC(=O)CC)c2ccccc2S1(=O)=O |  | active: 20.6 µM
4 | Cc1ccc(-n2nc3cc(C)c(NC(=O)c4cccnc4)cc3n2)cc1 |  | inconclusive: 7.31 µM [activator, partial curve]
5 | O=C(Nc1cccc(C(F)(F)F)c1)c1ccc2nc(-c3ccco3)c(-c3ccco3)nc2c1 |  | inconclusive: 29.1 µM [falling, partial curve, poor fit]
6 | CC(CSc1n[nH]c(=S)s1)c1ccccc1 (configuration not stated) | inactive: -1.63% | 
7 | O=C(CCCc1nc(-c2ccc(Cl)cc2)no1)NCc1ccco1 |  | inconclusive: 20.6 µM [falling, partial curve]
8 | COc1ccc(-c2noc3c2-c2nc(-c4ccccc4C)sc2CC3)cc1 |  | inconclusive: 10.3 µM [activator, single point]
9 | O=C(NCCc1ccc(F)cc1)c1ccc([N+](=O)[O-])cc1 |  | inconclusive: 6.51 µM [activator, partial curve]
10 | COc1ccccc1CNC(=O)CSc1nc(N)c(C#N)c(-c2cccs2)c1C#N |  | inconclusive: 35.5 µM [falling, single point]
11 | Cc1cc(/C(N)=N/OC(=O)c2ccc(Cl)cc2)no1 |  | inconclusive: 3.26 µM [activator, single point]
12 | Cc1cc(NS(=O)(=O)c2ccc(NC(=O)C(C)Oc3cccc(C)c3C)cc2)nc(C)n1 (configuration not stated) |  | inconclusive: 25.9 µM [falling, partial curve, poor fit]
13 | CCCCn1c(N)c(N(CCC(C)C)C(=O)Cc2ccc(S(=O)(=O)N3CCOCC3)s2)c(=O)[nH]c1=O |  | inconclusive: 2.31 µM [activator, single point]
14 | CC(C)(C)NC(=O)Cn1cc(S(=O)(=O)Cc2ccccc2Cl)c2ccccc21 |  | inconclusive: 20.6 µM [activator, single point]
15 | COc1ccccc1N1CCN(c2c3c(nc4nncn24)CCC3)CC1 | inactive: 6.01% | 
16 | N#C/C(=C\Nc1ccccc1O)c1nc2ccccc2o1 |  | inconclusive: 29.1 µM [falling, single point]
17 | CCOc1cc(S(=O)(=O)NCc2cccs2)ccc1Cl | inactive: -8.3% | 
18 | Cc1ccc2nsnc2c1S(=O)(=O)Nc1cccc2cccnc12 |  | active: 8.2 µM
19 | CCOc1ccc(-c2ccc(SCC(=O)NCC3CCCO3)nn2)cc1 (configuration not stated) |  | inconclusive: 2.91 µM [activator, full curve]
20 | COc1ccc(C2CC(c3cccc(Cl)c3)=NN2c2ccc(S(N)(=O)=O)cc2)cc1 (configuration not stated) |  | inconclusive: 29.1 µM [falling, single point]
21 | O=C(Nc1cc(Cl)cc(Cl)c1)N1CCN(C(=O)C2CCCO2)CC1 (configuration not stated) |  | active: 16.4 µM
22 | CC1CN/C(=C\C(=O)c2ccc(Br)cc2)C(=O)N1 (configuration not stated) |  | inconclusive: 1.64 µM [activator, partial curve]
23 | Cc1nc2ccccc2c2oc(C(=O)N3CCN(C(=O)c4ccco4)CC3)cc12 |  | inconclusive: 1.3 µM [falling, full curve]

A few values from the results shown.
O=C(Nc1cc(Cl)cc(Cl)c1)N1CCN(C(=O)C2CCCO2)CC1 (configuration not stated) – Potency: active: 16.4 µM
COc1ccccc1CNC(=O)CSc1nc(N)c(C#N)c(-c2cccs2)c1C#N – Potency: inconclusive: 35.5 µM [falling, single point]
O=C(CCCc1nc(-c2ccc(Cl)cc2)no1)NCc1ccco1 – Potency: inconclusive: 20.6 µM [falling, partial curve]
COc1ccc(C2CC(c3cccc(Cl)c3)=NN2c2ccc(S(N)(=O)=O)cc2)cc1 (configuration not stated) – Potency: inconclusive: 29.1 µM [falling, single point]

Following part:

Row | SMILES | activity change, negative = inhibition | Potency
24 | O=C1CCCC/C1=C/Nc1ccc(C(=O)O)cc1 |  | inconclusive: 1.84 µM [activator, full curve]
25 | Cc1cccc(C(=O)NNS(=O)(=O)c2ccc(F)cc2)c1 |  | inconclusive: 20.6 µM [falling, single point]
26 | Cc1ccc(Oc2cc([N+](=O)[O-])cc3c2C(=O)Nc2ccccc2O3)cc1 |  | active: 14.6 µM
27 | O=S(=O)(c1ccc(-c2nc3ccccc3s2)cc1)N1CCCC1 |  | inconclusive: 2.06 µM [activator, partial curve]
28 | Cc1ccc2nc(N/N=C\c3ccc([N+](=O)[O-])o3)nc(-c3ccccc3)c2c1 |  | inconclusive: 16.4 µM [falling, single point]
29 | Cc1cc(C)c(OCC(=O)Nc2nnc(-c3ccco3)o2)c(C)c1 | inactive: 7.17% | 
30 | CC1CCCN(C(=O)c2ccc(CSc3nc4ccncc4n3Cc3ccccc3)cc2)C1 (configuration not stated) | inactive: -28.4% | 
31 | O=C(NCc1ccc(Cl)cc1)c1cc2cccc3c2n1CCS3 |  | inconclusive: 29.1 µM [activator, single point]
32 | O=C(/C=C/c1ccco1)Nc1ccccn1 |  | inconclusive: 1.3 µM [activator, full curve, poor fit]
33 | C=C(C)COc1ccc(-c2[nH]ncc2-c2ccc(OC)c(OC)c2)c(O)c1 | inactive: -8.12% | 
34 | CC(=O)Oc1ccccc1C1=NN(C(=O)/C=C/c2ccccc2)C(c2ccccc2)C1 (configuration not stated) |  | inconclusive: 20.6 µM [falling, single point]
35 | COc1ccc(-c2csc(Nc3cccc(C)n3)n2)cc1 |  | inconclusive: 4.11 µM [activator, full curve, poor fit]
36 | CSc1ccc(C(=O)NCC(c2ccco2)N(C)C)cc1[N+](=O)[O-] (configuration not stated) | inactive: -3.79% | 
37 | COc1ccc(Nc2ncnc3c2c(C)c(C)n3CCO)cc1 |  | inconclusive: 4.11 µM [activator, full curve]
38 | O=C(Nc1ccc(C(=O)N2CCCC2)cc1)c1ccc(F)cc1Cl |  | inconclusive: 18.4 µM [falling, partial curve, poor fit]
39 | CCOC(=O)c1ccc(S(=O)(=O)N2CCC(C(=O)NCC3CCCCC3)CC2)cc1 |  | inconclusive: 6.51 µM [activator, single point]
40 | Cc1cc(C)n(C(=O)CN2C(=O)COc3ccccc32)n1 |  | inconclusive: 1.16 µM [falling, partial curve, poor fit]
41 | Cn1c(CSc2nc3ccccc3s2)nnc1SCC(=O)NCCN1CCOCC1 |  | inconclusive: 6.51 µM [falling, single point]
42 | Cc1ccc(-c2nnn(CC(=O)NC3CCCc4ccccc43)n2)cc1 (configuration not stated) | inactive: -0.84% | 
43 | COc1ccc(CNC(=O)N2CCN(c3cccc(C)c3C)CC2)cc1OC |  | inconclusive: 25.9 µM [falling, single point]
44 | CC(=O)c1c(C)[nH]c(C(=O)OCC(=O)N2c3ccccc3NC(=O)C2(C)C)c1C |  | inconclusive: 13 µM [falling, partial curve]
45 | Nc1nc(CSC(=S)N2CCOCC2)nc(Nc2ccccc2)n1 |  | inconclusive: 2.31 µM [activator, full curve]
46 | CC(C)(CO)Cc1cc(C(C)(C)C)c(O)c(C(C)(C)C)c1 | inactive: -5.36% | 

3 entries out of the list, sorted by length of the SMILES, rising.
Row | SMILES | activity change, negative = inhibition | Potency
24 | O=C1CCCC/C1=C/Nc1ccc(C(=O)O)cc1 |  | inconclusive: 1.84 µM [activator, full curve]
41 | Cn1c(CSc2nc3ccccc3s2)nnc1SCC(=O)NCCN1CCOCC1 |  | inconclusive: 6.51 µM [falling, single point]
28 | Cc1ccc2nc(N/N=C\c3ccc([N+](=O)[O-])o3)nc(-c3ccccc3)c2c1 |  | inconclusive: 16.4 µM [falling, single point]

Later entries

Row | SMILES | activity change, negative = inhibition | Potency
47 | CC(=O)C1CCC2C3CCC4CC(=O)CCC4(C)C3C(O)CC12C (configuration not stated) |  | inconclusive: 20.6 µM [falling, partial curve, poor fit]
48 | CN(C)c1ccc(-c2nnc(-c3cccnc3)o2)cc1 |  | inconclusive: 11.6 µM [activator, partial curve]
49 | Cc1ccc(N(C)S(=O)(=O)c2nnc(NC(=O)c3ccco3)s2)cc1 |  | inconclusive: 2.06 µM [activator, full curve]
50 | CCOC(=O)c1ccc(N2C(=O)CC(Sc3nnc(C)s3)C2=O)cc1 (configuration not stated) |  | inconclusive: 9.2 µM [activator, partial curve, poor fit]
51 | COCCCNS(=O)(=O)c1ccc(Oc2ncc(C(F)(F)F)cc2Cl)cc1 |  | inconclusive: 20.6 µM [falling, single point]
52 | O=S(=O)(c1ccc2c(c1)OCCO2)N1CCC(c2nc3ccccc3s2)CC1 |  | active: 3.26 µM
53 | CCOC(=O)c1[nH]c(C)c(C(=O)OC(C)C(=O)Nc2ncc(Cl)cc2Cl)c1C (configuration not stated) |  | inconclusive: 22.4 µM [falling, single point]
54 | CC(N=Cc1c(O)c2ccccc2oc1=O)C(=O)O (configuration not stated) |  | inconclusive: 29.1 µM [falling, single point]
55 | O=C1C=C(Nc2ccc(Cl)cc2)CC(c2ccc(Cl)cc2)C1 (configuration not stated) |  | inconclusive: 25.9 µM [falling, single point]
56 | C=CCn1c(-c2ccc(Cl)cc2)c[nH]c1=S |  | inconclusive: 32.6 µM [falling, single point]
57 | CC(C)(C)S(=O)(=O)/C(C#N)=N/Nc1ccc(Cl)cc1 |  | active: 10.3 µM
58 | Cc1cc(C)n(-c2ccc(C(=O)OCC(=O)N(CC(C)C)C3CCS(=O)(=O)C3)cc2)n1 (configuration not stated) |  | inconclusive: 23.1 µM [activator, partial curve, poor fit]
59 | CCCC(=O)Nc1ccc(Cl)c(NC(=S)NC(=O)c2ccco2)c1 |  | inconclusive: 29.1 µM [falling, single point]
60 | CCOc1ccc2nc(SCC(=O)c3ccc(Cl)s3)sc2c1 |  | inconclusive: 6.51 µM [activator, full curve]
61 | Cn1c(=O)c2c(nc(Sc3ncccn3)n2Cc2ccc(Cl)cc2)n(C)c1=O |  | active: 14.6 µM
62 | Cn1c(=O)[nH]c(=O)c2c1nc(Br)n2CCSc1nnnn1-c1ccccc1 |  | inconclusive: 32.6 µM [falling, single point]
63 | Cc1ccccc1-c1nc(-c2ccc(NC(=O)c3cccs3)cc2)no1 |  | inconclusive: 8.2 µM [falling, partial curve, poor fit]
64 | N#Cc1nc(-c2cccc3ccccc23)oc1N1CCCCC1 |  | inconclusive: 0.82 µM [activator, full curve, poor fit]
65 | C=CCn1c(SCC(=O)c2ccc(O)c(O)c2)nnc1-c1ccc(C)cc1 |  | inconclusive: 16.4 µM [activator, partial curve, poor fit]
66 | CCOC(=O)C1=C(C)N=c2s/c(=C/c3ccco3)c(=O)n2C1c1cccc(OC)c1 (configuration not stated) |  | inconclusive: 29.1 µM [falling, single point]
67 | Cc1cccc(NC(=O)c2ccc(COc3ccc4ccccc4c3)o2)n1 |  | inconclusive: 5.8 µM [activator, partial curve, poor fit]
